The list does not hold the whole screen: it gathers tests that were run many times, whatever their T/C, doses with no T/C, and many T/C values between a quarter and a half above the control. Other doses and runs of a compound stand elsewhere. T/C gives the treated animals as a percentage of the vehicle group. Some doses have a count of surviving animals in place of a T/C: the source files T/C as zero there, which appears to mark a toxic dose or a test without result, not a measured value. Some doses without a T/C left all or most animals alive at the check, yet need not have been tolerated: survival well below the control is almost never listed, so the zero probably covers shortened survival too. Survivors were counted at the toxicity check, usually on the fifth day, unless a day is given; later deaths do not show. Schedules are NCI's codes, read here as Q, the interval in days (D) or hours (H), X, the number of doses. Some schedule codes hold Z or #, which are not explained here. Where survival is the endpoint, this PubChem deposit counts one and a half times the control or more as active, and values a quarter to a half above the control carry no call in these data; other NCI protocols may use other cut-offs. Some entries hold several experiments; the values are given in rising order. Some T/C values carry the count of animals alive at the toxicity check (mostly the fifth day); without a count, all were alive then.
Test system: L1210 leukemia ip in BDF1 mice, survival T/C
Test: NCI In Vivo Anticancer Drug Screen. Data for tumor model L1210 Leukemia (intraperitoneal) in B6D2F1 (BDF1) mice
Details: T/C endpoint: mean survival time, higher T/C = longer survival
[1] = dose: 40.0 micrograms/kg/injection, schedule: Q01DX Z (ip), vehicle: carboxymethylcellulose (CMC)

With `Cc1c2oc3c(C)ccc(C(=O)N[C@@H]4C(=O)N[C@H](C(C)C)C(=O)N5CCC[C@H]5C(=O)N(C)CC(=O)N(C)[C@@H](C(C)C)C(=O)O[C@H]4C)c3nc-2c(C(=O)N[C@@H]2C(=O)N[C@H](C(C)C)C(=O)N3CCC[C@H]3C(=O)N(C)CC(=O)N(C)[C@@H](C(C)C)C(=O)O[C@H]2C)c(N)c1=O` the T/C (dose: 32.0 micrograms/kg/injection, schedule: Q01DX009 (ip), vehicle: clinical formulation) was 138 % of control, the T/C (dose: 32.0 micrograms/kg/injection, schedule: Q01DX009 (ip), vehicle: saline) was 129 % of control [8 of 10 alive] and the T/C (dose: 32.0 micrograms/kg/injection, schedule: Q01DX009 (ip), vehicle: water, evaluated on day 5) was 139 % of control. For the same molecule, the T/C (dose: 32.0 micrograms/kg/injection, schedule: Q01DX009 (ip), vehicle: water, evaluated on day 30) was 135 % of control, the T/C (dose: 32.0 micrograms/kg/injection, schedule: Q01DX009 (ip), vehicle: water, evaluated on day 60) was 141 % of control and the T/C (dose: 37.0 micrograms/kg/injection, schedule: Q03DX Z (ip), vehicle: other) was 131 % of control. For the same molecule, the T/C (dose: 37.0 micrograms/kg/injection, schedule: Q03DX Z (ip), vehicle: saline) was 144 % of control, the T/C (dose: 37.5 micrograms/kg/injection, schedule: Q01DX009 (ip), vehicle: saline + alcohol) was 139 % of control and the T/C [1] was 134 % of control. The survivor count [1] was 0 of 6, the T/C (dose: 45.0 micrograms/kg/injection, schedule: Q01DX015 (ip), vehicle: saline) was 125 and 137 % of control and the T/C (dose: 50.0 micrograms/kg/injection, schedule: Q01DX009 (ip), vehicle: saline + alcohol) was 140 % of control. For the same molecule, the T/C (dose: 50.0 micrograms/kg/injection, schedule: Q01DX009 (ip), vehicle: saline) was 129 % of control, the T/C (dose: 50.0 micrograms/kg/injection, schedule: Q01DX010 (ip), vehicle: other) was 109, 141, 143, 167 % of control and the survivor count (dose: 60.0 micrograms/kg/injection, schedule: Q01DX Z (ip), vehicle: carboxymethylcellulose (CMC)) was 0 of 6. For the same molecule, the T/C (dose: 64.0 micrograms/kg/injection, schedule: Q01DX009 (ip), vehicle: saline) was 125 % of control [8 of 10 alive], the T/C (dose: 64.0 micrograms/kg/injection, schedule: Q01DX009 (ip), vehicle: water, evaluated on day 5) was 135 % of control and the T/C (dose: 64.0 micrograms/kg/injection, schedule: Q01DX009 (ip), vehicle: water, evaluated on day 30) was 130 % of control. For the same molecule, the T/C (dose: 67.0 micrograms/kg/injection, schedule: Q02DX008 (ip), vehicle: saline) was 138 % of control, the T/C (dose: 75.0 micrograms/kg/injection, schedule: Q01DX009 (ip), vehicle: saline + alcohol) was 145 % of control and the T/C (dose: 75.0 micrograms/kg/injection, schedule: Q03DX Z (ip), vehicle: other) was 134 % of control. The T/C (dose: 100.0 micrograms/kg/injection, schedule: Q01DX010 (ip), vehicle: other) was 117, 136, 139, 145 % of control, the T/C (dose: 100.0 micrograms/kg/injection, schedule: Q01DX015 (ip), vehicle: saline) was 126 and 144 % of control and the T/C (dose: 100.0 micrograms/kg/injection, schedule: Q01DX Z (im), vehicle: other) was 128 % of control. The T/C (dose: 100.0 micrograms/kg/injection, schedule: Q02DX008 (ip), vehicle: saline) was 137 % of control, the T/C (dose: 104.0 micrograms/kg/injection, schedule: Q## X032 (ip), vehicle: saline) was 132 % of control and the T/C (dose: 112.0 micrograms/kg/injection, schedule: Q04DX003 (ip), vehicle: saline + alcohol) was 132 % of control. For the same molecule, the survivor count (dose: 128.0 micrograms/kg/injection, schedule: Q01DX009 (ip), vehicle: clinical formulation) was 9 of 10, the survivor count (dose: 128.0 micrograms/kg/injection, schedule: Q01DX009 (ip), vehicle: saline) was 10 of 10 and the T/C (dose: 135.0 micrograms/kg/injection, schedule: Q## X004 (ip), vehicle: saline) was 144 % of control. The T/C (dose: 150.0 micrograms/kg/injection, schedule: Q03DX Z (ip), vehicle: other) was 144 % of control, the T/C (dose: 150.0 micrograms/kg/injection, schedule: Q04DX003 (ip), vehicle: saline + alcohol) was 132 % of control and the T/C (dose: 150.0 micrograms/kg/injection, schedule: Q04DX003 (ip), vehicle: saline) was 132 % of control. For the same molecule, the T/C (dose: 160.0 micrograms/kg/injection, schedule: Q## X032 (ip), vehicle: saline) was 128 % of control, the T/C (dose: 225.0 micrograms/kg/injection, schedule: Q02DX008 (ip), vehicle: saline) was 148 % of control and the T/C (dose: 225.0 micrograms/kg/injection, schedule: Q04DX003 (ip), vehicle: saline + alcohol) was 140 % of control. The T/C (dose: 240.0 micrograms/kg/injection, schedule: Q## X032 (ip), vehicle: saline) was 127 % of control, the T/C (dose: 256.0 micrograms/kg/injection, schedule: Q01DX001 (ip), vehicle: saline) was 140 % of control and the T/C (dose: 256.0 micrograms/kg/injection, schedule: Q04DX003 (ip), vehicle: water) was 133 % of control. The T/C (dose: 300.0 micrograms/kg/injection, schedule: Q04DX003 (ip), vehicle: saline + alcohol) was 144 % of control, the T/C (dose: 300.0 micrograms/kg/injection, schedule: Q## X004 (ip), vehicle: saline) was 144 % of control and the T/C (dose: 330.0 micrograms/kg/injection, schedule: Q02DX008 (ip), vehicle: saline) was 135 % of control. For the same molecule, the T/C (dose: 350.0 micrograms/kg/injection, schedule: Q01DX001 (ip), vehicle: other) was 140 % of control, the T/C (dose: 350.0 micrograms/kg/injection, schedule: Q07DX Z (ip), vehicle: other) was 145 % of control and the T/C (dose: 360.0 micrograms/kg/injection, schedule: Q## X032 (ip), vehicle: saline) was 126 % of control. The T/C (dose: 400.0 micrograms/kg/injection, schedule: Q01DX001 (ip), vehicle: saline) was 130 % of control and the T/C (dose: 512.0 micrograms/kg/injection, schedule: Q01DX001 (ip), vehicle: clinical formulation) was 134 % of control.
